In article PMC7205985:
Results are given in words; binding and its absence hold for the method and conditions named. In cells and extracts the contact can be indirect. Some results given as binding are weak or reduced against the parent protein; the word gives no strength.

The chains behind the UniProt entries cited, without tags or fusion partners.
UniProt P61289: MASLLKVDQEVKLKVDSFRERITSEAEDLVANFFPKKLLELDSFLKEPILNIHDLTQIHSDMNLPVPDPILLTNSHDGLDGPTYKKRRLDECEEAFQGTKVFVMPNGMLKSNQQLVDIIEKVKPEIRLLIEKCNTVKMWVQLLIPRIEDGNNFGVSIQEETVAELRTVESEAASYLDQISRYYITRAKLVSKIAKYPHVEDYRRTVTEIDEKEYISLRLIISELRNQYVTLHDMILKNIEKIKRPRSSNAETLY
UniProt O15105: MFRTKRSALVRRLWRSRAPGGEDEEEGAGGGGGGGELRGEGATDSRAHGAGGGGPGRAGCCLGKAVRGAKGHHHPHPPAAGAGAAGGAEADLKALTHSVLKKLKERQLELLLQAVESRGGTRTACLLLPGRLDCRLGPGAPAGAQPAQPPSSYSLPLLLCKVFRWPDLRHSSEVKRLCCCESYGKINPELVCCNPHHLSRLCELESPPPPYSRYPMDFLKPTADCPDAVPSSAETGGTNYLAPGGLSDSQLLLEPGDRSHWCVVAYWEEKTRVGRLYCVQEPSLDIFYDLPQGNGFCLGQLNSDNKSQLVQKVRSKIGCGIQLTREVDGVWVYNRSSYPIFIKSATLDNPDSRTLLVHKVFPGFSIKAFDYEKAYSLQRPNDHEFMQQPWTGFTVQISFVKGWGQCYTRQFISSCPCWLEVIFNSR

What was measured:
HA-REGγ = HA-REGγ (UniProt P61289); test: co-IP; HEK293 cells transiently co-transfected with pcDNA3.1-HA-REGγ and pcDNA3.1-Flag-Smad7 for 48 h; CHAPS lysis buffer; extracts incubated overnight with 2.5 µg anti-HA or anti-Flag antibody and Protein G beads; western blot; reciprocal
Flag-Smad7 = Flag-Smad7 (UniProt O15105); test: as above

binding (HA-REGγ)	binding (Flag-Smad7)	Substance
binds	–	Flag-Smad7 (from UniProt O15105 1-426)
–	binds	HA-REGγ (from UniProt P61289 1-254)
